Results on 1 molecule are retold here after paper PMC8509428, “The Phenoxyalkyltriazine Antagonists for 5-HT6 Receptor with Promising Procognitive and Pharmacokinetic Properties In Vivo in Search for a Novel Therapeutic Approach to Dementia Diseases” (International Journal of Molecular Sciences, 2021).

Chains of the proteins cited; added tags and fusions are not shown.
UniProt P50406, whole entry: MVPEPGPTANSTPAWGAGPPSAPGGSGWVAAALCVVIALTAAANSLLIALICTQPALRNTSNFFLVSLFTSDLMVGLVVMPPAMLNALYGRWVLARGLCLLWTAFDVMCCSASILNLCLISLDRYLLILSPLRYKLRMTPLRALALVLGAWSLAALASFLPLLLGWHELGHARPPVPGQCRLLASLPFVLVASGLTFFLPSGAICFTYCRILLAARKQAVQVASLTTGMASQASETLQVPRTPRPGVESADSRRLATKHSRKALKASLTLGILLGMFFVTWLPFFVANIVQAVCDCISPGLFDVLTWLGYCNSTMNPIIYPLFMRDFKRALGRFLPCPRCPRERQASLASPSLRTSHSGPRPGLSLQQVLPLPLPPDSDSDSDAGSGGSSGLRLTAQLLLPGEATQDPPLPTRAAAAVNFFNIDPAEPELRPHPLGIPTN

For this experiment, the target named is human serotonin 5-HT6 receptor (Homo sapiens, UniProt P50406). In words: Functional assay for 5-HT6 receptor (cAMP, 1321N1 cells).

Regarding `COc1ccc(NS(=O)(=O)c2ccc(I)cc2)cc1N1CCN(C)CC1` [SB258585], the “5-HT6 Antagonist Mode pIC50” value (Table S1) worked out at 8.22. Where the note is “read-out: 5-HT6 Antagonist Mode IC50, Table S1”, the IC50 is 6 nM. Moreover, the Kb (read-out: 5-HT6 Antagonist Mode Kb, Table S1) came out at 1.2 nM. The “5-HT6R Antagonist Mode pKb” value (± SEM, normalized to SB258585 10^−5 M) worked out at 8.92 ± 0.10.
